Measurements: paper PMC7819943, “Rice protein-binding microarrays: a tool to detect cis-acting elements near promoter regions in rice”
This is one part of the list.

Molecular target: T1, OsSMF1 (Oryza sativa, UniProt Q6ZLB0 1-436)
T1 sequence: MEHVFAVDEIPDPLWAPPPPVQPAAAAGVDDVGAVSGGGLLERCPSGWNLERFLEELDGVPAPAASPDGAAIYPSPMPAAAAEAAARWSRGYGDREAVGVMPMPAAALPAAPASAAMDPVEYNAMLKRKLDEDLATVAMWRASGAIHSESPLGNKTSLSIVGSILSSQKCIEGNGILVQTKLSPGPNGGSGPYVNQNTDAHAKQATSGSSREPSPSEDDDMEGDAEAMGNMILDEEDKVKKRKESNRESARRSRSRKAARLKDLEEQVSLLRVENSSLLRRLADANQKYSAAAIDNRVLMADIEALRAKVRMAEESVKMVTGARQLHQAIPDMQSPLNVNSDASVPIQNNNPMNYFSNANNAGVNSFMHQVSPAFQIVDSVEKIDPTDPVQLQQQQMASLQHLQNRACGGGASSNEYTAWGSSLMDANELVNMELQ
Assay: protein-binding microarray (RPBM); PBS, 2% BSA, 51.3 ng/ul salmon testes DNA, 50 uM zinc acetate, 200 nM TF, 25 C, 1 h; high values mean tight binding
Conditions: protein: recombinant; tags: N-terminal polyhistidine and DsRed monomer fusion (pET32a); chain copies: 2; label: CyDye5-dUTP incorporated in the synthesized complementary strand; 3' TTTTT single-stranded linker to array surface; dsDNA, one strand shown
Method in brief: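 A custom Agilent array was converted to double-stranded form by primer extension with Cy5-dUTP and blocked with 2% BSA. Protein at 200 nM in PBS with 2% BSA, salmon testes DNA and 50 µM zinc acetate was applied for 1 h at 25 °C, followed by washing. The proteins were polyhistidine–DsRed N-terminal fusions of transcription factors, expressed in E. coli BL21-CodonPlus and Ni–NTA-purified. The binding signal is per-feature fluorescence intensity (arbitrary units) from an Axon 4000B scanner.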

Sequence	binding signal
CGTCGTATTAACCTCTCTAAACCCCGTGGCGTCAGCGACGCGGAGTCACCTAGTGCAG	5270 fluorescence intensity (a.u.)
CGTGGTGGTGGTAGGGGAGGGGATGGATGATATGGCGTGACGGAGTCACCTAGTGCAG	6780 fluorescence intensity (a.u.)
AAGCTAATCGCCTTGTCAGACACCCGCATCCCCACCATCCCGGAGTCACCTAGTGCAG	3840 fluorescence intensity (a.u.)
CGCTGTTTGGCCGCGGCGCCAGCGCCGTCATCGTGGGCACCGGAGTCACCTAGTGCAG	3140 fluorescence intensity (a.u.)
AAGAGAACACAACCTAATGACGCGGTACACGGGACACCCACGGAGTCACCTAGTGCAG	4630 fluorescence intensity (a.u.)
TTAGTGTCTGCATTGGATATGAGTCACGGGTTCTTGGTTACGGAGTCACCTAGTGCAG	12600 fluorescence intensity (a.u.)
TTTTATAAGTAGTAAATATGACGTCGATTCCTGACTAAAACGGAGTCACCTAGTGCAG	5550 fluorescence intensity (a.u.)
AGATTATTAATCATGGCGACACGAATGGAAATGGTTAATACGGAGTCACCTAGTGCAG	3240 fluorescence intensity (a.u.)
ACCACTCACATGTACTGTCAGCATATCCTACGTTCTCTCCCGGAGTCACCTAGTGCAG	6070 fluorescence intensity (a.u.)
TGCTTAGCCGTGCGGCCCGTGCGGCGTCAATGGCGTGGCGCGGAGTCACCTAGTGCAG	4440 fluorescence intensity (a.u.)
TACTTCTTCTAAATGCTATAGCCAGGGAATGCAAACGAGACGGAGTCACCTAGTGCAG	42000 fluorescence intensity (a.u.)
CGTCGGAGCTAGCAGCAGCGCCGCCGCCCGTGAGCCCTCCCGGAGTCACCTAGTGCAG	6260 fluorescence intensity (a.u.)
CTAATAGAATGACGTGTAATTCCTTGTCACATTCATAAAACGGAGTCACCTAGTGCAG	11300 fluorescence intensity (a.u.)
ACATGCAAAGAGAAGACATCCCCTCGAGAGATGAAAATCCCGGAGTCACCTAGTGCAG	4000 fluorescence intensity (a.u.)
ACTTATCCCATGCAGAAACTTTATGACGCAGGCACAAATACGGAGTCACCTAGTGCAG	3250 fluorescence intensity (a.u.)
CGACCCTATCCGTACTGCACTTCCGGCCAACCCCACGTCGCGGAGTCACCTAGTGCAG	3790 fluorescence intensity (a.u.)
CCCATGATCCAGCCAGTCCAGTGGCGCGTCACCGCCTCACCGGAGTCACCTAGTGCAG	5210 fluorescence intensity (a.u.)
AAAGCTAATCCGGTGAAAGGCCCAAATACTTACGTGGGCCCGGAGTCACCTAGTGCAG	4800 fluorescence intensity (a.u.)
CATCACTGCAAACGAATTTCTGATGAATTTCCACGTTGAACGGAGTCACCTAGTGCAG	3320 fluorescence intensity (a.u.)
CTGGTATTAGCTGAAGTCAGCCTGCTTTTGGTCATTGGCACGGAGTCACCTAGTGCAG	3320 fluorescence intensity (a.u.)
CCGCCCTGACGTACGTAGCACAATCCTATCTCTGTTCTGTCGGAGTCACCTAGTGCAG	3590 fluorescence intensity (a.u.)

Sequence	binding signal
GGTGGTAGGTGCTTTGACCTCGCCTCCCCGAAGGAGGTTGCGGAGTCACCTAGTGCAG	3930 fluorescence intensity (a.u.)
TCGAGAAGTAGCCCGGGATGGTCGTGCCCGGCGGTGGCGGCGGAGTCACCTAGTGCAG	6740 fluorescence intensity (a.u.)
TATACCTGATTCACCTCACTGTCATAAAACTTGTTGCAAACGGAGTCACCTAGTGCAG	3760 fluorescence intensity (a.u.)
ACCGCCGCCTGTTCTTCCCGCGACTCCCCACCCCAACCCCCGGAGTCACCTAGTGCAG	16800 fluorescence intensity (a.u.)
GTGCGCGCTGCTGCCCGGGCCGCACCGTGTGATACGTACACGGAGTCACCTAGTGCAG	3450 fluorescence intensity (a.u.)
CGGTGGTTTTGGCTGACGTGGCACCTATGTGGCAAATTTGCGGAGTCACCTAGTGCAG	7870 fluorescence intensity (a.u.)
GTGCATGTCATGTAATACAATAAAATTCCAATTGACAAGTCGGAGTCACCTAGTGCAG	3390 fluorescence intensity (a.u.)
CCTGCCGCCACGTCTGGAGGTCATGTTCCCCACTTCGGTGCGGAGTCACCTAGTGCAG	5160 fluorescence intensity (a.u.)
CTAATGTGCAGCTCCCATGGATGACTCAGCAGACAGCAGGCGGAGTCACCTAGTGCAG	14800 fluorescence intensity (a.u.)
CCCGTTTCCATCGTTAGTGCTGGGCCGAAAGTTCTAGGCCCGGAGTCACCTAGTGCAG	29200 fluorescence intensity (a.u.)
AGTGAGATCCACGGGACGGAAGTGCACATGCCAACGCATGCGGAGTCACCTAGTGCAG	4320 fluorescence intensity (a.u.)
CAAAGCACTCGTTGTCACCCACTTGGCCGACGTCATCGCGCGGAGTCACCTAGTGCAG	11200 fluorescence intensity (a.u.)
GCGAGTTTGCGCAGCCTGCCTCGTACGTAGGCCTGGCCCACGGAGTCACCTAGTGCAG	4250 fluorescence intensity (a.u.)
GCACCGTTCCACCCTCGTGTCCGTCTCGCATTGCACCAAACGGAGTCACCTAGTGCAG	3550 fluorescence intensity (a.u.)
GACCTAGAAAATCACATGACATAGCCCCTAGCATTGTAGCCGGAGTCACCTAGTGCAG	4030 fluorescence intensity (a.u.)
GTATACCGAACCCGTCGTCGTCGACGCCACGCTCGCATTGCGGAGTCACCTAGTGCAG	5480 fluorescence intensity (a.u.)
ATGAACTCATGCAACATTACTGGCTGATGCATCAACTTTACGGAGTCACCTAGTGCAG	3270 fluorescence intensity (a.u.)
CCGGCCACCGCCCTCCCGCCGCACGGGCCACCGGCCACCGCGGAGTCACCTAGTGCAG	3460 fluorescence intensity (a.u.)
AAATCCTCTCGTTTCTCCGCTCGCTGATTCATTCTCAACGCGGAGTCACCTAGTGCAG	3180 fluorescence intensity (a.u.)
CTTTTGAGTGATCAAAAGGACACTTGGTGGCTACATGTAACGGAGTCACCTAGTGCAG	3160 fluorescence intensity (a.u.)
CCCAGATCCAGCCCACGGCCCACGTGTCAACGCTCGTGCACGGAGTCACCTAGTGCAG	12900 fluorescence intensity (a.u.)

Some of the entries above in another layout:
Sequence | binding signal
AGTGAGATCCACGGGACGGAAGTGCACATGCCAACGCATGCGGAGTCACCTAGTGCAG | 4320 fluorescence intensity (a.u.)
CAAAGCACTCGTTGTCACCCACTTGGCCGACGTCATCGCGCGGAGTCACCTAGTGCAG | 11200 fluorescence intensity (a.u.)
